Data from PubChem BioAssay AID485349 (National Center for Advancing Translational Sciences (NCATS), 2010).
The campaign covered roughly 320,000 compounds. About 620 (0.19%) were called active. The shares of active, inactive and inconclusive entries below differ from those in the screen. Calls come from the whole dose curve; as a rule, active = well fitted activation curve with a large enough effect; inconclusive = small, poorly fitted or top-dose-only effect; inactive = no such curve, though single readings can be large or run the other way. Where the call is inconclusive, the potency comes from a doubtful curve fit.

Assay: qHTS Assay for Identifying a Potential Treatment of Ataxia-Telangiectasia; note: nearly all actives have a fitted effect of over 45% in size; for activation: % of control where 0% means no effect
Details: […] A-T fibroblasts, KAP-1 phosphorylation AlphaLISA, neocarzinostatin DNA damage 30 min before lysis; series mostly up to 57.5 µM; activation: at the top concentration
Summary of the method: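 ATM-like activity read as KAP-1 phosphorylation via AlphaLISA donor/acceptor antibody pairs after lysis and 6 hr at 25C. Cells were ATM-null patient fibroblasts ([…], hTERT), dosed 60 min, then exposed to the DSB inducer NCS for 30 min.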
Potency is the fitted concentration of half-maximal effect.

Q: For `CCN(CC)c1ccc2cc(C(C)=O)c(=O)oc2c1`, which Potency is on record?
A: inconclusive: 20 µM [activator, partial curve]

Q: Which “activation” value does the source give for `O=C(O)c1ccccc1SC1CC(=O)N(c2cccc3ccccc23)C1=O` (stereo unspecified) here?
A: inactive: 0%

Q: With `COc1ccc(CNC(=O)C2CCCN(S(=O)(=O)N3CC(C)CC(C)C3)C2)c(OC)c1` (stereo unspecified) as the compound, how does the “activation” value read?
A: inactive: 3.1%

Q: With `Cc1ccc(NC(=O)CN(C)C2CCCCC2)cc1Cl` as the compound, how does the Potency read?
A: inconclusive: 39.8 µM [activator, single point]

Q: Which Potency does the source give for `COc1ccc(Br)cc1/C=C/C(=O)c1ccc(NC(C)=O)cc1` here?
A: inconclusive: 39.8 µM [activator, single point]

Q: Which “activation” value does the source give for `Cc1ccc(C)n1-c1nc(=S)[nH][nH]1` here?
A: inactive: -2.46%

Q: For `COc1ccccc1NC(=O)c1cc2n(n1)C(C(F)(F)F)CC(c1ccc3c(c1)OCO3)N2` (stereo unspecified), which “activation” value is on record?
A: inactive: 1.02%

Q: Which Potency does the source give for `S=C1NC[C@H](c2ccccc2)N1CCCCC1CCCCC1` here?
A: active: 35.5 µM

Q: With `N/N=c1\sc2ccccc2n1-c1ccccc1` as the compound, how does the Potency read?
A: inconclusive: 7.94 µM [activator, full curve, poor fit]

Q: Which Potency does the source give for `O=C(/C=C/c1cccc([N+](=O)[O-])c1)c1cccs1` here?
A: inconclusive: 22.4 µM [activator, partial curve]

Q: For `COc1ccc(C(=O)Nc2ccccc2N2CCN(C(=O)c3ccccc3)CC2)cc1Br`, which “activation” value is on record?
A: inactive: 4.03%

Q: Which Potency does the source give for `Cc1cccc2c1-c1sc(C(=O)N3CCc4ccccc4C3)cc1CO2` here?
A: inconclusive: 20 µM [activator, partial curve]

Q: Which Potency does the source give for `CCCCCCc1cc2cc(S(=O)(=O)c3ccc(C)cc3)c(=O)oc2cc1O` here?
A: active: 28.2 µM

Q: Which Potency does the source give for `O=C1/C(=C/c2ccc(N3CCOCC3)o2)SC(=Nc2ccccc2)N1CCc1c[nH]c2ccccc12` here?
A: inconclusive: 7.08 µM [activator, single point]

Q: With `O=C(CSc1ccc([N+](=O)[O-])cc1)Nc1nnc(C2CC2)s1` as the compound, how does the “activation” value read?
A: inactive: 1.04%

Q: For `COc1cccc(/C=N/NC(=O)c2cc3cc([N+](=O)[O-])ccc3s2)c1O`, which Potency is on record?
A: inconclusive: 3.98 µM [activator, partial curve, poor fit]

Q: Which Potency does the source give for `CC(C)c1ccc(S(=O)(=O)N2CCN(C(=O)c3ccc(N4CCCC4)c([N+](=O)[O-])c3)CC2)cc1` here?
A: inconclusive: 39.8 µM [activator, single point]

Q: Which Potency does the source give for `CC[C@@H](CCC=C(C)C)C(=O)N(Cc1ccccc1)c1ccccc1` here?
A: inconclusive: 39.8 µM [activator, single point]

Q: For `Cc1ccc(N(CC(O)CN2CCCCC2)S(=O)(=O)c2ccccc2)cc1` (stereo unspecified), which “activation” value is on record?
A: inactive: 3.04%

Q: Which Potency does the source give for `Cn1c(NC(=O)Cc2ccc(F)cc2)cc(=O)n(C)c1=O` here?
A: inconclusive: 11.2 µM [activator, partial curve, poor fit]

Q: Which Potency does the source give for `CCCOc1ccc(C2C(C(=O)OC)=CN(CCOC)C=C2C(=O)OC)cc1` here?
A: inconclusive: 35.5 µM [activator, single point]

Q: Which “activation” value does the source give for `NC(=O)Nc1cc(Cl)ccc1Cl` here?
A: inactive: 8.92%

Q: With `COCc1cc(C)nc(SCc2ccc([N+](=O)[O-])cc2)c1C#N` as the compound, how does the Potency read?
A: inconclusive: 39.8 µM [activator, partial curve]

Q: For `NC1=CC(=O)c2cccc3cccc1c23`, which “activation” value is on record?
A: inactive: 2.04%

Q: Which Potency does the source give for `COc1ccc(CNC(=O)CC(NC(N)=O)c2ccccc2Cl)cc1OC` (stereo unspecified) here?
A: inconclusive: 3.55 µM [activator, partial curve]

Q: Which Potency does the source give for `CC(C)(C)c1nc2scc(-c3ccc(Br)cc3)c2c(=O)o1` here?
A: inconclusive: 4.47 µM [activator, single point]

Q: Which Potency does the source give for `CN(Cc1ccccc1)C(=O)c1cccc(N2C(=O)C3CC=CCC3C2=O)c1` (stereo unspecified) here?
A: active: 3.16 µM

Q: For `CC1=CC(=O)c2ccccc2C1=O`, which Potency is on record?
A: inconclusive: 39.8 µM [activator, single point]

Q: For `S=c1[nH]nc(-c2ccncc2)n1/N=C/C=C/c1ccco1`, which “activation” value is on record?
A: inactive: -3.22%

Q: With `CCOC(=O)c1c(C)oc2c1c(C(c1ccncc1)N1CCOCC1)c(O)c1ccccc12` (stereo unspecified) as the compound, how does the Potency read?
A: inconclusive: 35.5 µM [activator, single point]

Q: Which “activation” value does the source give for `CCN1CCCC1Cn1cnc2c([nH]c3cccc(Cl)c32)c1=O` (stereo unspecified) here?
A: inactive: -1.79%

Q: For `COc1cc(/C=C2\SC(=S)N(C(C(=O)O)c3ccccc3)C2=O)ccc1O` (stereo unspecified), which Potency is on record?
A: inconclusive: 3.98 µM [activator, partial curve, poor fit]

Q: Which Potency does the source give for `Cc1cc(C)n(CCC(=O)N/N=C/c2c(O)ccc3ccccc23)n1` here?
A: inconclusive: 5.01 µM [activator, single point]

Q: For `COCCCNC(=O)CN1C(=O)/C(=C/c2ccccc2)Sc2ccccc21`, which Potency is on record?
A: active: 39.8 µM

Q: For `COc1ccc(-n2nnnc2-c2cnc(N3CCCC3)nc2C(F)(F)F)cc1`, which “activation” value is on record?
A: inactive: 1.44%

Q: For `CCOC(=O)C1CCN(C(=O)c2cc3cc(Cl)ccc3[nH]2)CC1`, which Potency is on record?
A: active: 7.94 µM

Q: With `FC(F)(F)c1cc(-c2cccs2)nc2cc(-c3ccccc3)nn12` as the compound, how does the “activation” value read?
A: inactive: -1.72%

Q: With `CC(=O)Nc1ccc(OCC(O)Cn2c(C(C)C)nc3ccccc32)cc1` (stereo unspecified) as the compound, how does the “activation” value read?
A: inactive: 4.64%

Q: With `COc1ccc(-c2sc3cc(OC)c(OC)cc3c2C#CC2(O)CCCCC2)cc1` as the compound, how does the Potency read?
A: inconclusive: 31.6 µM [activator, partial curve]

Q: With `COc1ccccc1CC(=O)NC(=O)c1ccccc1O` as the compound, how does the Potency read?
A: inconclusive: 0.631 µM [activator, full curve, poor fit]

Q: Which Potency does the source give for `O=C(COc1ccccc1[N+](=O)[O-])N1CCCc2ccccc21` here?
A: inconclusive: 0.631 µM [activator, full curve, poor fit]

Q: Which Potency does the source give for `CC(=O)/C(N=Nc1cccc(C(F)(F)F)c1)=C(\C)O` here?
A: inconclusive: 11.2 µM [activator, partial curve]

Q: With `Cc1nn(C)c(C)c1NC(=O)c1cc2nc(-c3ccco3)cc(C(F)(F)F)n2n1` as the compound, how does the “activation” value read?
A: inactive: 11.2%

Q: For `CCOC(=O)CC1C(=O)NCCN1C(=O)c1cccc(OC)c1` (stereo unspecified), which “activation” value is on record?
A: inactive: -9.09%

Q: Which Potency does the source give for `CC(C)Cn1cc(C(=O)NCC2CCCO2)c2c3ccccc3n(C)c2c1=O` (stereo unspecified) here?
A: inconclusive: 14.1 µM [activator, partial curve]

Q: For `COc1ccc(-c2cc(C(=O)Nc3cc(Cl)ccc3OC)no2)cc1`, which “activation” value is on record?
A: inactive: -8.7%

Q: With `N=c1ccn(Cc2ccc(Cl)cc2)cc1` as the compound, how does the Potency read?
A: inconclusive: 0.631 µM [activator, full curve, poor fit]

Q: With `CCOC(=O)c1ccccc1NC(=O)COC(=O)CN1C(=O)C2CC=CCC2C1=O` (stereo unspecified) as the compound, how does the Potency read?
A: inconclusive: 39.8 µM [activator, single point]

Q: For `O=C(Cn1nnc(-c2ccccc2F)n1)Nc1cccc2ncccc12`, which Potency is on record?
A: inconclusive: 4.47 µM [activator, single point]

Q: For `COc1ccccc1N(CC(=O)N/N=C/c1ccc(C(=O)O)cc1)S(=O)(=O)c1ccc(C)cc1`, which Potency is on record?
A: inconclusive: 39.8 µM [activator, partial curve, poor fit]

Q: For `CCNC(=O)COc1ccc(/C=C2\COc3ccccc3C2=O)cc1OC`, which Potency is on record?
A: active: 25.1 µM

Q: With `Cn1c(=O)c(NCCc2ccccc2)c2c3c(cccc31)C(=O)c1ccccc1-2` as the compound, how does the Potency read?
A: inconclusive: 28.2 µM [activator, partial curve]

Q: Which Potency does the source give for `C=C1C(=O)[C@@]23[C@H](O)C[C@@H]4C(C)(C)CC[C@H](O)[C@@]4(C)[C@@H]2CC[C@@H]1[C@H]3O` here?
A: inconclusive: 25.1 µM [activator, single point]

Q: With `Cc1cccc2cc3c(NC(=O)C(C)(C)C)nn(CC(C)C)c3nc12` as the compound, how does the Potency read?
A: inconclusive: 31.6 µM [activator, single point]

Q: For `COC(=O)c1sc2ccccc2c1N`, which Potency is on record?
A: inconclusive: 35.5 µM [activator, partial curve]

Q: For `CCOC(=O)C1CCN(c2ncnc3c2c(-c2ccccc2)cn3-c2ccccc2)CC1`, which “activation” value is on record?
A: inactive: 16.5%

Q: Which Potency does the source give for `CCCN(C(=O)c1ccco1)c1nnc(-c2ccccc2C)s1` here?
A: inconclusive: 31.6 µM [activator, partial curve]

Q: With `C(=N\Nc1ccccn1)/c1c[nH]c2ccccc12` as the compound, how does the Potency read?
A: active: 5.01 µM

Q: For `COc1ccccc1-c1nc2n(n1)C(c1ccccc1Cl)C(C(N)=O)=C(C)N2` (stereo unspecified), which Potency is on record?
A: inconclusive: 20 µM [activator, single point]

Q: For `CC(=O)Nc1ccc(NC2=C(Cl)C(=O)c3ccccc3C2=O)cc1`, which Potency is on record?
A: active: 3.16 µM

Q: With `COc1ccc(N2CSC3=C(C#N)C(c4cccs4)CC(=O)N3C2)cc1` (stereo unspecified) as the compound, how does the Potency read?
A: inconclusive: 3.98 µM [activator, single point]

Q: For `COc1cc(OC)cc(C(=O)NC(=S)N(Cc2ccccc2)C(C)C)c1`, which Potency is on record?
A: inconclusive: 44.7 µM [activator, partial curve]

Q: Which Potency does the source give for `Cc1ccc(S(=O)(=O)NCCC(=O)Nc2cccc(S(=O)(=O)N3CCCC3)c2)cc1C` here?
A: inconclusive: 39.8 µM [activator, single point]

Q: With `CCSc1nc2sc3c(c2c(=O)n1CC)CCC3` as the compound, how does the Potency read?
A: inconclusive: 35.5 µM [activator, single point]

Q: With `CC1CCCCN1CC(=O)Nc1ccccc1Sc1ccccc1` (stereo unspecified) as the compound, how does the Potency read?
A: inconclusive: 31.6 µM [activator, partial curve]

Q: With `CCOc1nc(NC2CCCC2)nc(N2CCC(C)CC2)n1` as the compound, how does the Potency read?
A: inconclusive: 25.1 µM [activator, single point]

Q: With `CCn1c(=NC(=O)CN2C(=O)CCC2=O)sc2c(OC)ccc(OC)c21` as the compound, how does the Potency read?
A: inconclusive: 3.16 µM [activator, partial curve]

Q: Which Potency does the source give for `COc1cc(NC(=O)c2ccc(C(=O)c3ccccc3)cc2)cc(OC)c1OC` here?
A: inconclusive: 3.55 µM [activator, single point]

Q: With `O=C(COC(=O)c1ccccc1)NC1CCCC1` as the compound, how does the Potency read?
A: inconclusive: 0.708 µM [activator, full curve, poor fit]

Q: With `FC(F)(F)c1cc(-c2ccco2)nc(NCCc2ccccc2)n1` as the compound, how does the Potency read?
A: inconclusive: 25.1 µM [activator, partial curve]

Q: Which Potency does the source give for `CCOc1ccc(Cl)cc1/C=N/NC(=O)c1ccccc1` here?
A: inconclusive: 39.8 µM [activator, partial curve]
